# Literature values in patent US20100130618A1, “TREATMENT OF HUMAN DISEASE CONDITIONS AND DISORDERS USING VITAMIN K ANALOGUES AND DERIVATIVES” (priority 2007, published 2010).
# Where two headings read alike, the source gives them in different places. At least one read-out could not be matched to a standard name with certainty.
# Conditions: human subjects, cited from earlier work
smiles,measurement,setting,value
"CC1=C(C/C=C(\C)CCC[C@H](C)CCC[C@H](C)CCCC(C)C)C(=O)c2ccccc2C1=O [PK, phylloquinone]",bioavailability (area under an absorption curve) relative to pure phylloquinone,1 mg in spinach with butter added,13%
same,bioavailability (area under an absorption curve) relative to pure phylloquinone,1 mg in spinach,4%
